Experimental findings from patent US20150087604A1 (TIANJIN TOPTECH BIO-SCIENCE & TECHNOLOGY CO., LTD., priority 2011, published 2015) are described below.

This data set is described as follows: general procedure: Fmoc solid-phase peptide synthesis; chloromethylated polystyrene (chlorinated benzyl ester resin). The note with it: whole synthesis, HPLC (Agela C18 column).

On to “Gly-Gly-Cys-Arg-His-Lys-Leu-Val-Cys-Ala-Pro-Ala-Pro-Cys-Asn-Phe-Phe-Thr”, for which the “final HPLC purity” value (run 1) is recorded as 98% and the “final HPLC purity” value (run 2) is 98.11%.
